# This is one part of the list.
# Experiments:
# Assay in all cases: glycan array binding signal (z-score within array); higher = stronger binding
# Conditions in all cases: glycan notation: IUPAC condensed, linker removed
# [1] = target: Fuc(a1-2)Gal6S(b1-4)GlcNAc
# In short: (§1)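 Glycan array binding is given as a within-array Z-score, which can be read as non-binding when negative. The arrays, 3228 of them, came from the Consortium for Functional Glycomics database and were retained only where the protein sequence was available. Z-scores were averaged across arrays of the same protein sequence at different concentrations or buffers and across linkers.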
# [2] = target: Fuc(a1-2)[Gal(a1-3)]Gal
# In short: as §1
# [3] = target: Fuc(a1-2)[Gal(a1-3)]Gal(b1-3)GalNAc
# In short: as §1
# [4] = target: Fuc(a1-2)[Gal(a1-3)]Gal(b1-3)GalNAc(b1-3)Gal(a1-4)Gal(b1-4)Glc
# In short: as §1
# [5] = target: Fuc(a1-2)[Gal(a1-3)]Gal(b1-3)GlcNAc
# In short: as §1
# [6] = target: Fuc(a1-2)[Gal(a1-3)]Gal(b1-3)GlcNAc(b1-2)Man(a1-3)[Fuc(a1-2)[Gal(a1-3)]Gal(b1-3)GlcNAc(b1-2)Man(a1-6)]Man(b1-4)GlcNAc(b1-4)GlcNAc
# In short: as §1
# [7] = target: Fuc(a1-2)[Gal(a1-3)]Gal(b1-3)GlcNAc(b1-2)Man(a1-3)[Fuc(a1-2)[Gal(a1-3)]Gal(b1-3)GlcNAc(b1-2)Man(a1-6)]Man(b1-4)GlcNAc(b1-4)[Fuc(a1-6)]GlcNAc
# In short: as §1
# [8] = target: Fuc(a1-2)[Gal(a1-3)]Gal(b1-3)GlcNAc(b1-3)GalNAc
# In short: as §1
# [9] = target: Fuc(a1-2)[Gal(a1-3)]Gal(b1-3)GlcNAc(b1-6)GalNAc
# In short: as §1
# [10] = target: Fuc(a1-2)[Gal(a1-3)]Gal(b1-4)Glc
# In short: as §1
# [11] = target: Fuc(a1-2)[Gal(a1-3)]Gal(b1-4)GlcNAc
# In short: as §1
# [12] = target: Fuc(a1-2)[Gal(a1-3)]Gal(b1-4)GlcNAc(b1-2)Man
# In short: as §1
# [13] = target: Fuc(a1-2)[Gal(a1-3)]Gal(b1-4)GlcNAc(b1-2)Man(a1-3)[Fuc(a1-2)[Gal(a1-3)]Gal(b1-4)GlcNAc(b1-2)Man(a1-6)]Man(b1-4)GlcNAc(b1-4)GlcNAc
# In short: as §1
# [14] = target: Fuc(a1-2)[Gal(a1-3)]Gal(b1-4)GlcNAc(b1-2)Man(a1-3)[Fuc(a1-2)[Gal(a1-3)]Gal(b1-4)GlcNAc(b1-2)Man(a1-6)]Man(b1-4)GlcNAc(b1-4)[Fuc(a1-6)]GlcNAc
# In short: as §1
# [15] = target: Fuc(a1-2)[Gal(a1-3)]Gal(b1-4)GlcNAc(b1-3)GalNAc
# In short: as §1
# [16] = target: Fuc(a1-2)[Gal(a1-3)]Gal(b1-4)GlcNAc(b1-3)[Fuc(a1-2)[Gal(a1-3)]Gal(b1-4)GlcNAc(b1-6)]GalNAc
# In short: as §1
# [17] = target: Fuc(a1-2)[Gal(a1-3)]Gal(b1-4)GlcNAc(b1-6)GalNAc
# In short: as §1
# [18] = target: Fuc(a1-2)[Gal(a1-3)]Gal(b1-4)[Fuc(a1-3)]Glc
# In short: as §1
# [19] = target: Fuc(a1-2)[Gal(a1-3)]Gal(b1-4)[Fuc(a1-3)]GlcNAc
# In short: as §1
# [20] = target: Fuc(a1-2)[Gal(a1-3)]Gal(b1-4)[Fuc(a1-3)]GlcNAc(b1-3)GalNAc
# In short: as §1
# [21] = target: Fuc(a1-2)[Gal(a1-4)]Gal(b1-4)GlcNAc
# In short: as §1
# [22] = target: Fuc(a1-2)[GalNAc(a1-3)]Gal
# In short: as §1
# [23] = target: Fuc(a1-2)[GalNAc(a1-3)]Gal(b1-3)GalNAc(a1-3)[Fuc(a1-2)]Gal(b1-4)GlcNAc
# In short: as §1
binder,measurement,setting,value
"BabA (Helicobacter pylori), O52269_HELPY (protein) AEDDGFYMSAGYQIGEAAQMVKNTKGIQELSDNYENLSNLLTRYSTLNTLIKLSADPSAVNAARENLGASAKNLIGDTKNSPAYQAVLLAINAAVGFWNVVGYVTQCGGNANGQKSTSSTTIFNNEPGYRSTSITCSLNGHMPGYYGPMSIENFKKLNEAYQILQTALKNGLPALKENNGTVNVTYSYTCSGEGNDNCSLQTTGVTNQNNGTKTETQTIDGKSVTTTISSKVVDSQ",glycan array binding signal (z-score),[1],0.283
same,glycan array binding signal (z-score),[2],-0.529
same,glycan array binding signal (z-score),[3],-0.182
same,glycan array binding signal (z-score),[4],0.444
same,glycan array binding signal (z-score),[5],0.081
same,glycan array binding signal (z-score),[6],-0.46
same,glycan array binding signal (z-score),[7],0.381
same,glycan array binding signal (z-score),[8],-0.3
same,glycan array binding signal (z-score),[9],-0.228
same,glycan array binding signal (z-score),[10],-0.146
same,glycan array binding signal (z-score),[11],-0.002
same,glycan array binding signal (z-score),[12],-0.6
same,glycan array binding signal (z-score),[13],0.039
same,glycan array binding signal (z-score),[14],-0.046
same,glycan array binding signal (z-score),[15],-0.201
same,glycan array binding signal (z-score),[16],-0.273
same,glycan array binding signal (z-score),[17],-0.437
same,glycan array binding signal (z-score),[18],-0.328
same,glycan array binding signal (z-score),[19],0.075
same,glycan array binding signal (z-score),[20],-0.664
same,glycan array binding signal (z-score),[21],0.263
same,glycan array binding signal (z-score),[22],-0.267
same,glycan array binding signal (z-score),[23],-0.7

# Taken from the results shown (six entries):
binder,measurement,setting,value
"BabA (Helicobacter pylori), O52269_HELPY (protein) AEDDGFYMSAGYQIGEAAQMVKNTKGIQELSDNYENLSNLLTRYSTLNTLIKLSADPSAVNAARENLGASAKNLIGDTKNSPAYQAVLLAINAAVGFWNVVGYVTQCGGNANGQKSTSSTTIFNNEPGYRSTSITCSLNGHMPGYYGPMSIENFKKLNEAYQILQTALKNGLPALKENNGTVNVTYSYTCSGEGNDNCSLQTTGVTNQNNGTKTETQTIDGKSVTTTISSKVVDSQ",glycan array binding signal (z-score),[6],-0.46
same,glycan array binding signal (z-score),[7],0.381
same,glycan array binding signal (z-score),[8],-0.3
same,glycan array binding signal (z-score),[9],-0.228
same,glycan array binding signal (z-score),[10],-0.146
same,glycan array binding signal (z-score),[11],-0.002
